{
  "sequences": {"note": "By UniProt entry, the sequences of proteins in these tests, tags left out. Residues count along the entry.", "UniProt P08581, residues 25-932": "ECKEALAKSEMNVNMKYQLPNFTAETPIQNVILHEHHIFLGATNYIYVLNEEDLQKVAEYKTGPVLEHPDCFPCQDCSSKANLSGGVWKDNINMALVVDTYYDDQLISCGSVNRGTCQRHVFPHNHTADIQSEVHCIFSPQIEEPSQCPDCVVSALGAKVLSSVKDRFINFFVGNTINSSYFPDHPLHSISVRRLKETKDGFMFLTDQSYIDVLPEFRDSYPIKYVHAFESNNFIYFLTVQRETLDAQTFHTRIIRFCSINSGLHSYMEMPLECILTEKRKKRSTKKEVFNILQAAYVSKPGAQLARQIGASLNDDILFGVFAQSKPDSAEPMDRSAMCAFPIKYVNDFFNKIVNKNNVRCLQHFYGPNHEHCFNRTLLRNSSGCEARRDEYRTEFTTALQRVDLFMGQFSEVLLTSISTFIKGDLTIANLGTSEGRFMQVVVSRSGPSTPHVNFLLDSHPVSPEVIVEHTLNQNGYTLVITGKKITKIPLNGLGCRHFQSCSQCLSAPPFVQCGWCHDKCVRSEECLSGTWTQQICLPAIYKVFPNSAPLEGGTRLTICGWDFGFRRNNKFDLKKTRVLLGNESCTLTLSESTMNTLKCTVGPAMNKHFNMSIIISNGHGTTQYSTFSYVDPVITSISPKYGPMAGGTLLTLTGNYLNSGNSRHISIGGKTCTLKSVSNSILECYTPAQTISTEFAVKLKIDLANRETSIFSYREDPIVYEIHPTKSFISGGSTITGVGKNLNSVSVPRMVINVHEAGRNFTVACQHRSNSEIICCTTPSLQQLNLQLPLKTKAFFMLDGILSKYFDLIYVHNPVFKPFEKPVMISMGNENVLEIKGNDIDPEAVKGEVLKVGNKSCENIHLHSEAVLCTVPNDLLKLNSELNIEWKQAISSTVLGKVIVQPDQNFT", "UniProt P14210, residues 32-728": "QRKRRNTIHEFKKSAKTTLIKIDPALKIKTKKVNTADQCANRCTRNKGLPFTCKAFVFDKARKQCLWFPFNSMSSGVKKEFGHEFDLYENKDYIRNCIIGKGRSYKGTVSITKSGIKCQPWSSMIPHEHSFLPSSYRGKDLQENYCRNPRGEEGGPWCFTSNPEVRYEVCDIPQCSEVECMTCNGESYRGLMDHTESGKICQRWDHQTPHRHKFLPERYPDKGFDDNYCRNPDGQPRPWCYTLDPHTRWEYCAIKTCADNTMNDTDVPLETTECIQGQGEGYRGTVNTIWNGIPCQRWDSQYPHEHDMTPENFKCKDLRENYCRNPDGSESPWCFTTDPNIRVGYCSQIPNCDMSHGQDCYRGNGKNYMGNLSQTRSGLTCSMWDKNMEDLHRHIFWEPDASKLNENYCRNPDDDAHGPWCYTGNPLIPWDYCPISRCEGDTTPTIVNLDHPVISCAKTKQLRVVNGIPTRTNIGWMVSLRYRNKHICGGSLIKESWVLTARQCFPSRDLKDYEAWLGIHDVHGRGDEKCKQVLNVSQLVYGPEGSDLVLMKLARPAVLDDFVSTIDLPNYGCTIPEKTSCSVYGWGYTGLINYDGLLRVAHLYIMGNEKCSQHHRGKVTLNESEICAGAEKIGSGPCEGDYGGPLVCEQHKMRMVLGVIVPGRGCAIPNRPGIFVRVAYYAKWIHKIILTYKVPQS"},
  "source": "patent US20140193431A1",
  "about": "(KOREA RESEARCH INSTITUTE OF BIOSCIENCE AND BIOTECHNOLOGY, published 2014)",
  "molecular_target": "c-Met (extracellular domain)-Fc (human) (UniProt P08581)",
  "assay": "pull-down: HGF (100 ng) with Sema-Fc (0.5 ug) on protein A beads, Western blot with anti-human HGF; no lane without Sema-Fc is shown",
  "note": "These are yes or no findings as the source states them, for the method shown. In cells and extracts the contact can be indirect. Some entries that bind do so weakly or less than the wild type.",
  "data": [
    {"substance": "hepatocyte growth factor (HGF) (from UniProt P14210 32-728) (ligand)", "values": [
      {"measurement": "binding", "result": "binds"}
    ]}
  ]
}
